Laboratory results: patent EP0614662A1, “Use of (2E,4E,6E,10E)-3,7,11,15-tetramethyl-2,4,6,10,14-hexadecapentaenoic acid for the treatment of leukaemia” (Eisai Co., Ltd., priority 1993, dated 1994)
Some results come without the dose or concentration used.

System: HL-60
Assay: Cytotoxicity on HL-60 (viable cell count, Trypan Blue)
Assay type: cell-based
Settings: for LD₅₀/ID₅₀: HL-60, margin of safety
Description: After the completion of the incubation, the total cell count was calculated with a Burker-Turk calculation board and the viable cell count was calculated by regarding the cells stained with Trypan Blue as the dead ones. Thus ID₅₀ and LD₅₀ were determined. Further, a cytospin slide was prepared and the morphology of the cells was observed by the May-Giemsa staining method.

| Structure (SMILES) | LD₅₀/ID₅₀ | margin of safety expressed in the LD₅₀/ID₅₀ ratio, times as high as that of ATRA (HL-60, relative to ATRA) |
| --- | --- | --- |
| CC1=C(/C=C/C(C)=C/C=C/C(C)=C/C(=O)O)C(C)(C)CCC1 [ATRA, all-trans-retinoic acid, reference compound] | 1.79 | – |
| CC(C)=CCC/C(C)=C/CC/C(C)=C/C=C/C(C)=C/C(=O)O [compound (I), (2E,4E,6E,10E)-3,7,11,15-tetramethyl-2,4,6,10,14-hexadecapentaenoic acid] | 3.80 | about 2.1 times |
